# Taken from: PubChem BioAssay AID1508597 (Cure First, 2020)
# Assay: 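Genes whose silencing sensitises or protects ovarian cancer cells against rucaparib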 (primary screen)
# Cells: human ovarian carcinoma lines grown from tumours: OCI-P5x (papillary serous) and OCI-C5x (clear cell)
# Knock-down reagent: siRNA pool against human genes, 1.25 pmol siRNA per well
# Time to read-out: 72 h or 96 h, depending on the cell culture
# Conditions: rucaparib 20 µM (about IC30) or vehicle, present until read-out
# Measurement: 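Luminescent ATP-based viability assay read 72 or 96 h after transfection, depending on culture, given as normalised percent viability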
# Reading the numbers: viability, normalised: higher = more viable cells remaining
# Active means: 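a well counts as a hit if its normalised viability is under 80 percent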
# Meaning of the calls: active = viability under 80%; inactive = viability 80% or more
# The whole screen tested about 2,100 reagents; shown is an unselected part. 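Calls flag viability under 80% in either arm, not effects specific to rucaparib; the reference for percent is not stated.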 Not given: the 100% reference.
target gene,rucaparib or vehicle,cell line,technical replicate,"viability, normalised (%)",activity call
RABGGTA (Rab geranylgeranyltransferase subunit alpha),Rucaparib,OCI-C5x (clear cell),1,50.7,active
RABGGTA (Rab geranylgeranyltransferase subunit alpha),Rucaparib,OCI-C5x (clear cell),2,30.5,active
RABGGTA (Rab geranylgeranyltransferase subunit alpha),Rucaparib,OCI-C5x (clear cell),3,26.1,active
RABGGTA (Rab geranylgeranyltransferase subunit alpha),Rucaparib,OCI-P5x (serous),1,37.8,active
RABGGTA (Rab geranylgeranyltransferase subunit alpha),Rucaparib,OCI-P5x (serous),2,37,active
RABGGTA (Rab geranylgeranyltransferase subunit alpha),Rucaparib,OCI-P5x (serous),3,35.6,active
RABGGTA (Rab geranylgeranyltransferase subunit alpha),Vehicle,OCI-C5x (clear cell),1,25.7,active
RABGGTA (Rab geranylgeranyltransferase subunit alpha),Vehicle,OCI-C5x (clear cell),2,34.9,active
RABGGTA (Rab geranylgeranyltransferase subunit alpha),Vehicle,OCI-C5x (clear cell),3,26.6,active
RABGGTA (Rab geranylgeranyltransferase subunit alpha),Vehicle,OCI-P5x (serous),1,52.9,active
RABGGTA (Rab geranylgeranyltransferase subunit alpha),Vehicle,OCI-P5x (serous),2,59.1,active
RABGGTA (Rab geranylgeranyltransferase subunit alpha),Vehicle,OCI-P5x (serous),3,48.7,active
DYRK1A,Rucaparib,OCI-C5x (clear cell),1,85.4,inactive
DYRK1A,Rucaparib,OCI-C5x (clear cell),2,44,active
DYRK1A,Rucaparib,OCI-C5x (clear cell),3,69.7,active
DYRK1A,Rucaparib,OCI-P5x (serous),1,92.7,inactive
DYRK1A,Rucaparib,OCI-P5x (serous),2,91.7,inactive
DYRK1A,Rucaparib,OCI-P5x (serous),3,101,inactive
DYRK1A,Vehicle,OCI-C5x (clear cell),1,70.3,active
DYRK1A,Vehicle,OCI-C5x (clear cell),2,50,active
DYRK1A,Vehicle,OCI-C5x (clear cell),3,56.9,active
DYRK1A,Vehicle,OCI-P5x (serous),1,82.9,inactive
DYRK1A,Vehicle,OCI-P5x (serous),2,81.6,inactive
DYRK1A,Vehicle,OCI-P5x (serous),3,45.8,active

The list goes on, starting with the last 4 of the part before.
target gene,rucaparib or vehicle,cell line,technical replicate,"viability, normalised (%)",activity call
DYRK1A,Vehicle,OCI-C5x (clear cell),3,56.9,active
DYRK1A,Vehicle,OCI-P5x (serous),1,82.9,inactive
DYRK1A,Vehicle,OCI-P5x (serous),2,81.6,inactive
DYRK1A,Vehicle,OCI-P5x (serous),3,45.8,active
NADK (NAD kinase),Rucaparib,OCI-C5x (clear cell),1,68.4,active
NADK (NAD kinase),Rucaparib,OCI-C5x (clear cell),2,70,active
NADK (NAD kinase),Rucaparib,OCI-C5x (clear cell),3,66,active
NADK (NAD kinase),Rucaparib,OCI-P5x (serous),1,68,active
NADK (NAD kinase),Rucaparib,OCI-P5x (serous),2,66.7,active
NADK (NAD kinase),Rucaparib,OCI-P5x (serous),3,61.3,active
NADK (NAD kinase),Vehicle,OCI-C5x (clear cell),1,49.8,active
NADK (NAD kinase),Vehicle,OCI-C5x (clear cell),2,51.3,active
NADK (NAD kinase),Vehicle,OCI-C5x (clear cell),3,45.2,active
NADK (NAD kinase),Vehicle,OCI-P5x (serous),1,68.2,active
NADK (NAD kinase),Vehicle,OCI-P5x (serous),2,48.7,active
NADK (NAD kinase),Vehicle,OCI-P5x (serous),3,67,active
BTAF1 (B-TFIID TATA-box binding protein associated factor 1),Rucaparib,OCI-C5x (clear cell),1,40.6,active
BTAF1 (B-TFIID TATA-box binding protein associated factor 1),Rucaparib,OCI-C5x (clear cell),2,56.5,active
BTAF1 (B-TFIID TATA-box binding protein associated factor 1),Rucaparib,OCI-C5x (clear cell),3,42.2,active
BTAF1 (B-TFIID TATA-box binding protein associated factor 1),Rucaparib,OCI-P5x (serous),1,60.8,active
BTAF1 (B-TFIID TATA-box binding protein associated factor 1),Rucaparib,OCI-P5x (serous),2,66.8,active
BTAF1 (B-TFIID TATA-box binding protein associated factor 1),Rucaparib,OCI-P5x (serous),3,63.1,active
BTAF1 (B-TFIID TATA-box binding protein associated factor 1),Vehicle,OCI-C5x (clear cell),1,50,active
BTAF1 (B-TFIID TATA-box binding protein associated factor 1),Vehicle,OCI-C5x (clear cell),2,28.9,active
BTAF1 (B-TFIID TATA-box binding protein associated factor 1),Vehicle,OCI-C5x (clear cell),3,28.7,active
BTAF1 (B-TFIID TATA-box binding protein associated factor 1),Vehicle,OCI-P5x (serous),1,48.2,active
BTAF1 (B-TFIID TATA-box binding protein associated factor 1),Vehicle,OCI-P5x (serous),2,79.6,active
BTAF1 (B-TFIID TATA-box binding protein associated factor 1),Vehicle,OCI-P5x (serous),3,55.8,active
